For the test, the target named is T1, Flag-FUT2 (fucosyltransferase 2), expressed in KPC cells (UniProt Q10981).
T1 sequence: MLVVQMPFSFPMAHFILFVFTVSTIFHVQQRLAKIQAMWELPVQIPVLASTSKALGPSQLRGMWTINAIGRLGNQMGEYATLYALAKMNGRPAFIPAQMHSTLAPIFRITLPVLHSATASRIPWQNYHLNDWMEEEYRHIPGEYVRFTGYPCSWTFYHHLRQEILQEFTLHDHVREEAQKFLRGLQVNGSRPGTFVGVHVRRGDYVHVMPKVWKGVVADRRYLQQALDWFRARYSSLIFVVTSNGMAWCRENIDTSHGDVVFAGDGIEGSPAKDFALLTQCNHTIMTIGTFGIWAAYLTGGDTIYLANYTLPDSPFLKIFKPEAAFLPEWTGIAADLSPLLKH
Put plainly: affinity purification with mass spectrometry; Flag-FUT2 immunoprecipitated from KPC cells using anti-Flag resin beads; precipitated complexes analysed by LC-MS/MS.

The text below walks through data of publication PMC12848027.

Results are given in words; binding and its absence hold for the method and conditions named. Binding seen in cells or lysates may run through a third protein. These calls come from enrichment with a bait or labelling near it, and not all partners need be listed. Sequences can lack the tags named with a protein.

B1: FBXO2 in KPC cells (protein, UniProt Q80UW2 1-297)
chain: MDGDGDPESVSHPEEASPEEQPEEAGAEASAEEEQLREAEEEEEAEAVEYLAELPEPLLLRVLAELPATELVQACRLVCLRWKELVDGAPLWLLKCQQEGLVPEGSADEERDHWQQFYFLSKRRRNLLRNPCGEEDLEGWSDVEHGGDGWRVEELPGDNGVEFTQDDSVKKYFASSFEWCRKAQVIDLQAEGYWEELLDTTQPAIVVKDWYSGRTDAGSLYELTVRLLSENEDVLAEFATGQVAVPEDGSWMEISHTFIDYGPGVRFVRFEHGGQDSVYWKGWFGARVTNSSVWVEP
Turning to B1, the binding entry is “binds”.
